# Source: the supplement of paper PMC6411743
# Chains of the proteins cited; added tags and fusions are not shown. Lines headed by an entry give the natural chain unless they say otherwise; changes in a name come on top.
# UniProt P57740: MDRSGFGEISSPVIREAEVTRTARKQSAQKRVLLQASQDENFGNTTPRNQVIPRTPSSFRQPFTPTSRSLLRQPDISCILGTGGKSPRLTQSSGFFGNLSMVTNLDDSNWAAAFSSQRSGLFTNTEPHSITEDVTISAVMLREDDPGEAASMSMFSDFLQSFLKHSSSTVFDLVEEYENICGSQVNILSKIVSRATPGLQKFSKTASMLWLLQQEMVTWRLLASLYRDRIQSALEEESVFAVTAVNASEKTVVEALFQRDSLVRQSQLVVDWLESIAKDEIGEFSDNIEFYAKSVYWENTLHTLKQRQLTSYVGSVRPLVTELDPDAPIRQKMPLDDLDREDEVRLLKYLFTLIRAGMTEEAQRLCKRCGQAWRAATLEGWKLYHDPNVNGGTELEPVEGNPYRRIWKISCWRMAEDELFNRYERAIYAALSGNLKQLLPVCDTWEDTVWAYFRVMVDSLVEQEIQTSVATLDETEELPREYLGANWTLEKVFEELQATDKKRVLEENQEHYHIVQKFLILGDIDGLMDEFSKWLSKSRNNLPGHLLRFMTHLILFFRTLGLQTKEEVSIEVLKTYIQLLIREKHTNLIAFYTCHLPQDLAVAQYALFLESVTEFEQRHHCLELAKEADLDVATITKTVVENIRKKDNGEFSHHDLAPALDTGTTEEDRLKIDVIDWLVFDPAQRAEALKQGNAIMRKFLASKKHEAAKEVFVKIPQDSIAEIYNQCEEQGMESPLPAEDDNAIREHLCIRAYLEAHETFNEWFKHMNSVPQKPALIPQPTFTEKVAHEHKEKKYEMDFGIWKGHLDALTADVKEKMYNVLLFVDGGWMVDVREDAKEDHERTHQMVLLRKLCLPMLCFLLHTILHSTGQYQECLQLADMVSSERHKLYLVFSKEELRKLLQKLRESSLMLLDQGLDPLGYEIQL
# UniProt P62318, whole entry: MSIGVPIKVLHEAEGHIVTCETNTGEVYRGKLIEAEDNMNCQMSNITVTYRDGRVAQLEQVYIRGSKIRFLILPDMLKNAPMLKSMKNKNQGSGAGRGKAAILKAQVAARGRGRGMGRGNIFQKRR
# UniProt P53007, whole entry, looked up: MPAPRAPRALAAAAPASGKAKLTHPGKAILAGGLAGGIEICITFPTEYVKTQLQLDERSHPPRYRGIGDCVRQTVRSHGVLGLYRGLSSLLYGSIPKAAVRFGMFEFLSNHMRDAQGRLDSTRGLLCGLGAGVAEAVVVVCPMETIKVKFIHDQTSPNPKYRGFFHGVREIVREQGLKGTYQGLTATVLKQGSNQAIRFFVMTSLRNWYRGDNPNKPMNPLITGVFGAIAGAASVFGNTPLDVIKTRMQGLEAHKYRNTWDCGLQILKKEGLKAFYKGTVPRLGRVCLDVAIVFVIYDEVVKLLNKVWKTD
# UniProt P98095: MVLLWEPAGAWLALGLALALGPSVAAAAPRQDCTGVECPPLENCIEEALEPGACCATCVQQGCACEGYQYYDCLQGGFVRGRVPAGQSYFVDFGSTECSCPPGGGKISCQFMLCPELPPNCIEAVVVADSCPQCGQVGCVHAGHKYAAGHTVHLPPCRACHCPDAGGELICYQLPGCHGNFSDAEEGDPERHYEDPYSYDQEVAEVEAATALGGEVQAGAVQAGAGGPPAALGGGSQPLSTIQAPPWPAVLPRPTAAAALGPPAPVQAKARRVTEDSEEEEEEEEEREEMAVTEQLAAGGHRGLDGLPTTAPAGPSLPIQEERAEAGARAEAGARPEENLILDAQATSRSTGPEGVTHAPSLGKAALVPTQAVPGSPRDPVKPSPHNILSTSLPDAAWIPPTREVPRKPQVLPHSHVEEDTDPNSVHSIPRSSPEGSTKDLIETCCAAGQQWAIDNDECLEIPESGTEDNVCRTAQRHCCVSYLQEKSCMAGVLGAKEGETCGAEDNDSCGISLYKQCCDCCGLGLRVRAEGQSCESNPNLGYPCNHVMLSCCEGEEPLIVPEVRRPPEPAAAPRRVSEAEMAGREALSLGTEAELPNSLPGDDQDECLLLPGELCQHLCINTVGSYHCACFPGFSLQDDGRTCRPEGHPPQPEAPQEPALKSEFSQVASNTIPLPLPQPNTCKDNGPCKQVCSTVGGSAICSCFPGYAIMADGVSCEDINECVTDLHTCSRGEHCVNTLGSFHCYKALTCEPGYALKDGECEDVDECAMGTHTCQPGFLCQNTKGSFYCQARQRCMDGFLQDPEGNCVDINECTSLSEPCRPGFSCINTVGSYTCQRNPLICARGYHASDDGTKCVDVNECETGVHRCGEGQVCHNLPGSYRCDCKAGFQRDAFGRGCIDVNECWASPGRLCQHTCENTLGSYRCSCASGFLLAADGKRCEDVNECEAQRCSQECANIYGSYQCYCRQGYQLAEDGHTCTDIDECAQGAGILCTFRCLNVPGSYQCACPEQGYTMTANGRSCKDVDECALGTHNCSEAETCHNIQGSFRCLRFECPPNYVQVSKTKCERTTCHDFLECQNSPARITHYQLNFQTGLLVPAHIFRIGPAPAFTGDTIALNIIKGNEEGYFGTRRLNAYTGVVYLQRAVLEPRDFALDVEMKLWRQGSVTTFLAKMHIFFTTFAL
# UniProt P54259: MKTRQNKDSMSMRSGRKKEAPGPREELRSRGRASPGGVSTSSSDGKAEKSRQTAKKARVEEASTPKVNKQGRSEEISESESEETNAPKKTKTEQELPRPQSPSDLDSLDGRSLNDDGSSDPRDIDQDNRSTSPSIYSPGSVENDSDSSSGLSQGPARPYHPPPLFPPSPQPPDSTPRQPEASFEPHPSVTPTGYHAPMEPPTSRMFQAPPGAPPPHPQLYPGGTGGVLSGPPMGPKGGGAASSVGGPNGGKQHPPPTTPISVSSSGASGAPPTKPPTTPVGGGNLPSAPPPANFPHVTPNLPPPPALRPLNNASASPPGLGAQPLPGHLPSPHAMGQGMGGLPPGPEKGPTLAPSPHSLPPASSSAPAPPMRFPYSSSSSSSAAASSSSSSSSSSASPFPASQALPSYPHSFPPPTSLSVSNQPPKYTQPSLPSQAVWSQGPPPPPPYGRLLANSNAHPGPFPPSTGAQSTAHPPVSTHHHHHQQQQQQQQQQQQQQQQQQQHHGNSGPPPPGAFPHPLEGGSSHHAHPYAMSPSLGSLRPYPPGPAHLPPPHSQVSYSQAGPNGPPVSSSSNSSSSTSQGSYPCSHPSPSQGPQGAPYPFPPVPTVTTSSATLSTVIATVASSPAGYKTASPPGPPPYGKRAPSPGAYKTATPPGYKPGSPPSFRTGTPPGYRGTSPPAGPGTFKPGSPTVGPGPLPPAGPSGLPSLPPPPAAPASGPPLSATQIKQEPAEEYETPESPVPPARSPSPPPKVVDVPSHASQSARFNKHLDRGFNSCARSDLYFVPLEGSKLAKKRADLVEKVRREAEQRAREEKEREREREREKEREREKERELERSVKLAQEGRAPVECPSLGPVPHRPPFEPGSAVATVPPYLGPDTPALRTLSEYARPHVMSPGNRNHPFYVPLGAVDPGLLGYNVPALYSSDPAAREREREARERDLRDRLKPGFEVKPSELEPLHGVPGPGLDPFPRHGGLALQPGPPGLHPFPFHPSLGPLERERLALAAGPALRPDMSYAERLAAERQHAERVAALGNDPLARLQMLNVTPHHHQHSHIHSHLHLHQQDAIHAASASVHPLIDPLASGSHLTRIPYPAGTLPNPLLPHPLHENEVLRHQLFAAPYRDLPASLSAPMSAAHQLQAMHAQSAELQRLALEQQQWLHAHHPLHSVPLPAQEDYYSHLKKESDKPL
# UniProt P84090, whole entry, looked up: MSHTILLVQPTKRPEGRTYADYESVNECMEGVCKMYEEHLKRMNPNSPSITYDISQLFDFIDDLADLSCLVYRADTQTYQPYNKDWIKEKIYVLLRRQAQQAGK
# UniProt P57076: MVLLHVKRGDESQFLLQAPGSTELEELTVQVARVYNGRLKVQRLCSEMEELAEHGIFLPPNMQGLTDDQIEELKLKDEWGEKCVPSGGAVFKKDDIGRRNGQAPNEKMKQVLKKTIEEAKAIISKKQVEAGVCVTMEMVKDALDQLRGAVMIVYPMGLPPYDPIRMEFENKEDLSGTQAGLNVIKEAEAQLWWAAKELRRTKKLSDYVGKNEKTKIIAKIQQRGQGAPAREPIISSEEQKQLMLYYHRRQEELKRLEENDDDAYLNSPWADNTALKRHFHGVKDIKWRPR
# UniProt P61758, whole entry: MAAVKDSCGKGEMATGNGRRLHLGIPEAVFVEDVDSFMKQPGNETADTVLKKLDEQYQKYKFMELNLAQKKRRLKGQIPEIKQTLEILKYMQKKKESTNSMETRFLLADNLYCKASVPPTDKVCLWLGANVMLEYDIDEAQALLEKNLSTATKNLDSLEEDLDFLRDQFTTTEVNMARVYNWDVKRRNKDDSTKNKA
# UniProt P78332: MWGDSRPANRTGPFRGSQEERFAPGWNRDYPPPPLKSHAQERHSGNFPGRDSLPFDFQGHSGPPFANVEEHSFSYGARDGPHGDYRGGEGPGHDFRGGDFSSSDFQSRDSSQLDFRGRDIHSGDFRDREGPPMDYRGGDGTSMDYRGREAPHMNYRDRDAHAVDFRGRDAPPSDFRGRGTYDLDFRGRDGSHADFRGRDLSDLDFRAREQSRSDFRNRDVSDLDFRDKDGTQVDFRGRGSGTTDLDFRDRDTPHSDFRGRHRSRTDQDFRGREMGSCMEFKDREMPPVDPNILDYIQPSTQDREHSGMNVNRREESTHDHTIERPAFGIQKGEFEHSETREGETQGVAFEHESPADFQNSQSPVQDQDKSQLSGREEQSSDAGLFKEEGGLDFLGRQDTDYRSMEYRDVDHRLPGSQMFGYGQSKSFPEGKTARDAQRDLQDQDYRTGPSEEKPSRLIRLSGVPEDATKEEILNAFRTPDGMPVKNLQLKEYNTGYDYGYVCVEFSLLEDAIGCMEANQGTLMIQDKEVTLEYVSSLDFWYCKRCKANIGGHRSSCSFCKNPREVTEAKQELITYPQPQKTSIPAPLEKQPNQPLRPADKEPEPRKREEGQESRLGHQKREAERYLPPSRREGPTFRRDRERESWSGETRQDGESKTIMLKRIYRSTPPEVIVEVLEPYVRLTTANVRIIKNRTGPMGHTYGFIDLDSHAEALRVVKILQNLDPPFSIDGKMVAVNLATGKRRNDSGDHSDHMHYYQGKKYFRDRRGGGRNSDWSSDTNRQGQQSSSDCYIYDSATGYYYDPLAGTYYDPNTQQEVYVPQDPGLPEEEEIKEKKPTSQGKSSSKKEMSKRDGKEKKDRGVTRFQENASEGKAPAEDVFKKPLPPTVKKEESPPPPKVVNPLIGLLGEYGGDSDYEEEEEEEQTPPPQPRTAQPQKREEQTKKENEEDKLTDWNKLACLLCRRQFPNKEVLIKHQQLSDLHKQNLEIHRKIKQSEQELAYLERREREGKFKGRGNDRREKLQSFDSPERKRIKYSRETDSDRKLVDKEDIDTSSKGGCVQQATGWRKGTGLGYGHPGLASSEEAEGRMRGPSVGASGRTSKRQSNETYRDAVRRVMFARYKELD
# UniProt P62310: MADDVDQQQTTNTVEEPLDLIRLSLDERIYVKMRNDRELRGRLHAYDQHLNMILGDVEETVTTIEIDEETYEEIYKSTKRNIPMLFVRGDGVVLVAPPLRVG
# UniProt P60228, whole entry: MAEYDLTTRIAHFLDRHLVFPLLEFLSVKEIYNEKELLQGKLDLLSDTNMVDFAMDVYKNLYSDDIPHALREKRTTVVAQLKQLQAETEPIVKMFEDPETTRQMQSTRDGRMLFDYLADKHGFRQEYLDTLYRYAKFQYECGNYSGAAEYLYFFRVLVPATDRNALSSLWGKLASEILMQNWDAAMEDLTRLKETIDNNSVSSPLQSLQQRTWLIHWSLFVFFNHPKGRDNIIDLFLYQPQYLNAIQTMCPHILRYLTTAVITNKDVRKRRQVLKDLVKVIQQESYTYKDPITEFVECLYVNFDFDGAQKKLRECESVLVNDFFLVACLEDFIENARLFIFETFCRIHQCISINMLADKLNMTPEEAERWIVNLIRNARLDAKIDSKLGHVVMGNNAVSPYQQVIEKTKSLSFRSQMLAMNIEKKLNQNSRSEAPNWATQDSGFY
# UniProt P62253: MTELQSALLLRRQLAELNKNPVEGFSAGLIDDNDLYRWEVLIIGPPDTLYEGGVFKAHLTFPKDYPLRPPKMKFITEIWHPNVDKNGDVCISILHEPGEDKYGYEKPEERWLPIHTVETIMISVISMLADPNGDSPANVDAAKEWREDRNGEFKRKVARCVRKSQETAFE
# UniProt P61225: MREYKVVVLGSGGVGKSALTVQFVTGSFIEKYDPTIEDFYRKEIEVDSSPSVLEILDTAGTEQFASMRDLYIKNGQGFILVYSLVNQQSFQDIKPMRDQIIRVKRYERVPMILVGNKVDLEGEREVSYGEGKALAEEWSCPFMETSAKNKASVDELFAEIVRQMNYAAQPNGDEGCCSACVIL
# UniProt P61106, whole entry, looked up: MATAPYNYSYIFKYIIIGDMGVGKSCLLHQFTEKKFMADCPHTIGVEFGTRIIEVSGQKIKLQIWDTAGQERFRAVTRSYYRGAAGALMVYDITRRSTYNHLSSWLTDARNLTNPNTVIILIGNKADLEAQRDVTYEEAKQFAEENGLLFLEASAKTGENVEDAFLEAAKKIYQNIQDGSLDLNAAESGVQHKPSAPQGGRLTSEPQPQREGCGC
# ± gives the standard deviation of the averaged measurements. This is a selection; strong and weak results do not stand in their true shares. Most entries show no effect beyond the scatter of the controls.
# Compound: Nc1ncnc2c1ncn2[C@@H]1O[C@H](COP(=O)(O)OP(=O)(O)OP(=O)(O)O)[C@@H](O)[C@H]1O [adenosine triphosphate]
# Assay: NP40-soluble protein abundance relative to vehicle (solubility fold change) (ratio); higher = more soluble protein in presence of ATP
# How it was run: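 Values are fold changes against the detergent-processed vehicle, based on vsn-normalised intensities. Jurkat crude lysate was treated at eight concentrations from 0.1 to 10 mM (10 min at room temperature, then 3 min at 37 °C), solubilised with 0.8% NP40 and benzonase, ultracentrifuged and analysed by TMT-labelled LC-MS/MS over three independent experiments.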
target,measurement,setting,value
EEF1A1 (UniProt P68104),NP40-soluble protein abundance,concentration: 0.1mM,0.971 ± 0.12
same,NP40-soluble protein abundance,concentration: 0.5mM,1.01 ± 0.036
NUP107 (UniProt P57740),NP40-soluble protein abundance,concentration: 0.1mM,1.04 ± 0.06
same,NP40-soluble protein abundance,concentration: 0.5mM,1.04 ± 0.064
UniProt P62318 and related entries,NP40-soluble protein abundance,concentration: 0.1mM,0.987 ± 0.033
same,NP40-soluble protein abundance,concentration: 0.5mM,1.06 ± 0.1
SLC25A1 (UniProt P53007),NP40-soluble protein abundance,concentration: 0.1mM,0.932 ± 0.022
same,NP40-soluble protein abundance,concentration: 0.5mM,0.943 ± 0.05
SLC16A1 (UniProt P53985),NP40-soluble protein abundance,concentration: 0.1mM,1 ± 0.041
same,NP40-soluble protein abundance,concentration: 0.5mM,1.06 ± 0.093
UniProt P98095 and related entries,NP40-soluble protein abundance,concentration: 0.1mM,0.985 ± 0.075
same,NP40-soluble protein abundance,concentration: 0.5mM,0.982 ± 0.025
ATN1 (UniProt P54259),NP40-soluble protein abundance,concentration: 0.1mM,0.974 ± 0.18
same,NP40-soluble protein abundance,concentration: 0.5mM,0.993 ± 0.018
UniProt P62917,NP40-soluble protein abundance,concentration: 0.1mM,0.95 ± 0.099
same,NP40-soluble protein abundance,concentration: 0.5mM,0.921 ± 0.13
UniProt P84090,NP40-soluble protein abundance,concentration: 0.1mM,0.928 ± 0.13
same,NP40-soluble protein abundance,concentration: 0.5mM,1.02 ± 0.11
UniProt P60891,NP40-soluble protein abundance,concentration: 0.1mM,0.9675 ± 0.0038
same,NP40-soluble protein abundance,concentration: 0.5mM,1.01 ± 0.038
UniProt P53778 and related entries,NP40-soluble protein abundance,concentration: 0.1mM,1.09 ± 0.066
same,NP40-soluble protein abundance,concentration: 0.5mM,1.04 ± 0.053
MRPS9 (UniProt P82933),NP40-soluble protein abundance,concentration: 0.1mM,0.987 ± 0.092
same,NP40-soluble protein abundance,concentration: 0.5mM,1 ± 0.06
UniProt P57076,NP40-soluble protein abundance,concentration: 0.1mM,0.979 ± 0.037
same,NP40-soluble protein abundance,concentration: 0.5mM,0.967 ± 0.036
VBP1 (UniProt P61758),NP40-soluble protein abundance,concentration: 0.1mM,0.937 ± 0.092
same,NP40-soluble protein abundance,concentration: 0.5mM,0.888 ± 0.071
UniProt P61129,NP40-soluble protein abundance,concentration: 0.1mM,0.934 ± 0.098
same,NP40-soluble protein abundance,concentration: 0.5mM,0.957 ± 0.072
UniProt P60866 and related entries,NP40-soluble protein abundance,concentration: 0.1mM,0.928 ± 0.13
same,NP40-soluble protein abundance,concentration: 0.5mM,0.901 ± 0.072
UniProt P82912 and related entries,NP40-soluble protein abundance,concentration: 0.1mM,0.982 ± 0.043
same,NP40-soluble protein abundance,concentration: 0.5mM,1.02 ± 0.067
HCCS (UniProt P53701),NP40-soluble protein abundance,concentration: 0.1mM,0.999 ± 0.03
same,NP40-soluble protein abundance,concentration: 0.5mM,1.06 ± 0.067
UniProt P78332 and related entries,NP40-soluble protein abundance,concentration: 0.1mM,0.986 ± 0.023
same,NP40-soluble protein abundance,concentration: 0.5mM,1.02 ± 0.028
UniProt P52948 and related entries,NP40-soluble protein abundance,concentration: 0.1mM,0.99 ± 0.032
same,NP40-soluble protein abundance,concentration: 0.5mM,1.02 ± 0.022
UniProt P62875,NP40-soluble protein abundance,concentration: 0.1mM,0.845 ± 0.17
same,NP40-soluble protein abundance,concentration: 0.5mM,0.895 ± 0.2
UniProt P62081,NP40-soluble protein abundance,concentration: 0.1mM,0.937 ± 0.091
same,NP40-soluble protein abundance,concentration: 0.5mM,0.941 ± 0.077
UniProt P61073 and related entries,NP40-soluble protein abundance,concentration: 0.1mM,0.944 ± 0.035
same,NP40-soluble protein abundance,concentration: 0.5mM,0.932 ± 0.084
UniProt P61254,NP40-soluble protein abundance,concentration: 0.1mM,0.917 ± 0.092
same,NP40-soluble protein abundance,concentration: 0.5mM,0.928 ± 0.08
UniProt P53396 and related entries,NP40-soluble protein abundance,concentration: 0.1mM,1.04 ± 0.076
same,NP40-soluble protein abundance,concentration: 0.5mM,1.03 ± 0.052
UniProt P78344 and related entries,NP40-soluble protein abundance,concentration: 0.1mM,0.9526 ± 0.0035
same,NP40-soluble protein abundance,concentration: 0.5mM,0.975 ± 0.03
UniProt P56159 and related entries,NP40-soluble protein abundance,concentration: 0.1mM,0.912 ± 0.089
same,NP40-soluble protein abundance,concentration: 0.5mM,0.936 ± 0.071
UniProt Q00613 and related entries,NP40-soluble protein abundance,concentration: 0.1mM,0.9763 ± 0.0093
same,NP40-soluble protein abundance,concentration: 0.5mM,0.943 ± 0.04
MLLT10 (UniProt P55197),NP40-soluble protein abundance,concentration: 0.1mM,1.01 ± 0.17
same,NP40-soluble protein abundance,concentration: 0.5mM,0.984 ± 0.11
MRPS34 (UniProt P82930),NP40-soluble protein abundance,concentration: 0.1mM,0.967 ± 0.094
same,NP40-soluble protein abundance,concentration: 0.5mM,0.945 ± 0.1
EIF6 (UniProt P56537),NP40-soluble protein abundance,concentration: 0.1mM,1.06 ± 0.054
same,NP40-soluble protein abundance,concentration: 0.5mM,1.07 ± 0.078
DSTN (UniProt P60981),NP40-soluble protein abundance,concentration: 0.1mM,0.986 ± 0.061
same,NP40-soluble protein abundance,concentration: 0.5mM,1.01 ± 0.058
UniProt P61020,NP40-soluble protein abundance,concentration: 0.1mM,0.987 ± 0.043
same,NP40-soluble protein abundance,concentration: 0.5mM,1.05 ± 0.026
UniProt P62829,NP40-soluble protein abundance,concentration: 0.1mM,0.966 ± 0.081
same,NP40-soluble protein abundance,concentration: 0.5mM,0.936 ± 0.08
UniProt P57081 and related entries,NP40-soluble protein abundance,concentration: 0.1mM,1.05 ± 0.091
same,NP40-soluble protein abundance,concentration: 0.5mM,1.03 ± 0.046
UniProt P55327-2|P55327-4,NP40-soluble protein abundance,concentration: 0.1mM,0.84 ± 0.23
same,NP40-soluble protein abundance,concentration: 0.5mM,0.806 ± 0.28
UniProt P62753,NP40-soluble protein abundance,concentration: 0.1mM,0.927 ± 0.13
same,NP40-soluble protein abundance,concentration: 0.5mM,0.89 ± 0.15
UniProt P80217 and related entries,NP40-soluble protein abundance,concentration: 0.1mM,1.01 ± 0.031
same,NP40-soluble protein abundance,concentration: 0.5mM,0.9965 ± 0.0073
UniProt P63151,NP40-soluble protein abundance,concentration: 0.1mM,1.06 ± 0.073
same,NP40-soluble protein abundance,concentration: 0.5mM,1.06 ± 0.074
UniProt P62310,NP40-soluble protein abundance,concentration: 0.1mM,1.02 ± 0.052
same,NP40-soluble protein abundance,concentration: 0.5mM,0.988 ± 0.07
HIRA (UniProt P54198),NP40-soluble protein abundance,concentration: 0.1mM,1.01 ± 0.11
same,NP40-soluble protein abundance,concentration: 0.5mM,1.04 ± 0.064
STX17 (UniProt P56962),NP40-soluble protein abundance,concentration: 0.1mM,0.977 ± 0.041
same,NP40-soluble protein abundance,concentration: 0.5mM,0.999 ± 0.012
GRB2 (UniProt P62993),NP40-soluble protein abundance,concentration: 0.1mM,1.04 ± 0.054
same,NP40-soluble protein abundance,concentration: 0.5mM,1.01 ± 0.069
UniProt P60228,NP40-soluble protein abundance,concentration: 0.1mM,0.934 ± 0.049
same,NP40-soluble protein abundance,concentration: 0.5mM,0.953 ± 0.043
same,NP40-soluble protein abundance,concentration: 1mM,0.999 ± 0.024
same,NP40-soluble protein abundance,concentration: 2mM,0.999 ± 0.051
same,NP40-soluble protein abundance,concentration: 4mM,1.08 ± 0.035
same,NP40-soluble protein abundance,concentration: 6mM,1.23 ± 0.063
same,NP40-soluble protein abundance,concentration: 8mM,1.34 ± 0.073
same,NP40-soluble protein abundance,concentration: 10mM,1.49 ± 0.12
UniProt P63092 and related entries,NP40-soluble protein abundance,concentration: 0.1mM,1.02 ± 0.036
same,NP40-soluble protein abundance,concentration: 0.5mM,1.03 ± 0.049
UniProt P55769,NP40-soluble protein abundance,concentration: 0.1mM,0.93 ± 0.13
same,NP40-soluble protein abundance,concentration: 0.5mM,0.954 ± 0.15
same,NP40-soluble protein abundance,concentration: 1mM,1.03 ± 0.15
same,NP40-soluble protein abundance,concentration: 2mM,1.06 ± 0.11
same,NP40-soluble protein abundance,concentration: 4mM,1.13 ± 0.13
same,NP40-soluble protein abundance,concentration: 6mM,1.23 ± 0.11
same,NP40-soluble protein abundance,concentration: 8mM,1.28 ± 0.049
same,NP40-soluble protein abundance,concentration: 10mM,1.33 ± 0.24
UniProt P78310 and related entries,NP40-soluble protein abundance,concentration: 0.1mM,0.949 ± 0.083
same,NP40-soluble protein abundance,concentration: 0.5mM,0.913 ± 0.039
MRPS25 (UniProt P82663),NP40-soluble protein abundance,concentration: 0.1mM,0.966 ± 0.036
same,NP40-soluble protein abundance,concentration: 0.5mM,1.06 ± 0.041
same,NP40-soluble protein abundance,concentration: 1mM,0.942 ± 0.092
same,NP40-soluble protein abundance,concentration: 2mM,0.951 ± 0.066
same,NP40-soluble protein abundance,concentration: 4mM,0.96 ± 0.043
same,NP40-soluble protein abundance,concentration: 6mM,0.881 ± 0.09
same,NP40-soluble protein abundance,concentration: 8mM,0.915 ± 0.081
same,NP40-soluble protein abundance,concentration: 10mM,0.928 ± 0.078
UniProt P62253,NP40-soluble protein abundance,concentration: 0.1mM,1.09 ± 0.084
same,NP40-soluble protein abundance,concentration: 0.5mM,1.07 ± 0.15
same,NP40-soluble protein abundance,concentration: 1mM,1.06 ± 0.053
same,NP40-soluble protein abundance,concentration: 2mM,1.05 ± 0.071
same,NP40-soluble protein abundance,concentration: 4mM,1 ± 0.07
same,NP40-soluble protein abundance,concentration: 6mM,1.01 ± 0.11
same,NP40-soluble protein abundance,concentration: 8mM,1.03 ± 0.097
same,NP40-soluble protein abundance,concentration: 10mM,0.947 ± 0.049
MRPS35 (UniProt P82673),NP40-soluble protein abundance,concentration: 0.1mM,0.949 ± 0.1
same,NP40-soluble protein abundance,concentration: 0.5mM,0.968 ± 0.08
UniProt P61201 and related entries,NP40-soluble protein abundance,concentration: 0.1mM,0.966 ± 0.038
same,NP40-soluble protein abundance,concentration: 0.5mM,0.988 ± 0.056
same,NP40-soluble protein abundance,concentration: 1mM,0.9548 ± 0.0092
same,NP40-soluble protein abundance,concentration: 2mM,0.945 ± 0.031
same,NP40-soluble protein abundance,concentration: 4mM,0.9178 ± 0.005
same,NP40-soluble protein abundance,concentration: 6mM,0.968 ± 0.03
same,NP40-soluble protein abundance,concentration: 8mM,0.912 ± 0.043
same,NP40-soluble protein abundance,concentration: 10mM,0.916 ± 0.026
CDKN2D (UniProt P55273),NP40-soluble protein abundance,concentration: 0.1mM,0.946 ± 0.12
same,NP40-soluble protein abundance,concentration: 0.5mM,0.932 ± 0.093
same,NP40-soluble protein abundance,concentration: 1mM,0.959 ± 0.065
same,NP40-soluble protein abundance,concentration: 2mM,0.928 ± 0.036
same,NP40-soluble protein abundance,concentration: 4mM,0.953 ± 0.046
same,NP40-soluble protein abundance,concentration: 6mM,0.953 ± 0.019
same,NP40-soluble protein abundance,concentration: 8mM,0.951 ± 0.024
same,NP40-soluble protein abundance,concentration: 10mM,0.872 ± 0.045
UniProt P61225,NP40-soluble protein abundance,concentration: 0.1mM,1.03 ± 0.087
same,NP40-soluble protein abundance,concentration: 0.5mM,0.987 ± 0.052
same,NP40-soluble protein abundance,concentration: 1mM,1.01 ± 0.074
same,NP40-soluble protein abundance,concentration: 2mM,0.921 ± 0.091
same,NP40-soluble protein abundance,concentration: 4mM,0.92 ± 0.082
same,NP40-soluble protein abundance,concentration: 6mM,0.846 ± 0.11
same,NP40-soluble protein abundance,concentration: 8mM,0.932 ± 0.065
same,NP40-soluble protein abundance,concentration: 10mM,0.932 ± 0.016
UniProt P61106,NP40-soluble protein abundance,concentration: 0.1mM,0.985 ± 0.062
same,NP40-soluble protein abundance,concentration: 0.5mM,1.01 ± 0.045
